Experiment [1] addresses T1, FLAG-LATS1 kinase domain (truncate) (UniProt O95835).
T1 sequence: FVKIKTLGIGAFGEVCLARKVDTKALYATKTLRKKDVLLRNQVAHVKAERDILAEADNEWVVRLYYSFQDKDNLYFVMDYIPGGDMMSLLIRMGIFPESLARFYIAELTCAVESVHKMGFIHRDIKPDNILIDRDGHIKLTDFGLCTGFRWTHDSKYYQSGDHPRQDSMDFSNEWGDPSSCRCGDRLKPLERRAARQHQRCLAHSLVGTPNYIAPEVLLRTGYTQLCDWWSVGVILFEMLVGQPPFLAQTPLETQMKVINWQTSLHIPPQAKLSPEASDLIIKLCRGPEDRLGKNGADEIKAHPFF
Kind of experiment: co-IP; HEK293 co-transfected with GFP-Kindlin-2 and truncates of FLAG-LATS1; lysates immunoprecipitated with anti-FLAG antibody and protein G-Sepharose; blots for GFP and FLAG.

Protein sequences, listed by entry. Tags and fused reporters are not part of them.
UniProt P46937: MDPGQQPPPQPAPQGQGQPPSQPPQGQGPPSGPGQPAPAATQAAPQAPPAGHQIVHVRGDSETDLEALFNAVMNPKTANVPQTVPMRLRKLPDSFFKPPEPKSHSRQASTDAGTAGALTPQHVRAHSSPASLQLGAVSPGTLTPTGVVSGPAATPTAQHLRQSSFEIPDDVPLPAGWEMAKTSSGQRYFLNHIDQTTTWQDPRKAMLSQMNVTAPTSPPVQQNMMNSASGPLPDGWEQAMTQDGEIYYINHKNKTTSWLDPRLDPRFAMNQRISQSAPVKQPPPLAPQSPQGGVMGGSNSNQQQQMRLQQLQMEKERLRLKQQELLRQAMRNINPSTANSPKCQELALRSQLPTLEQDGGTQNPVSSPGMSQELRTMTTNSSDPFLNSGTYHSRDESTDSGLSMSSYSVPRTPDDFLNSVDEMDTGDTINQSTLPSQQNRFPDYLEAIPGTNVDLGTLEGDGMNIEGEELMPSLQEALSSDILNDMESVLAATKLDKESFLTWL
UniProt P46938: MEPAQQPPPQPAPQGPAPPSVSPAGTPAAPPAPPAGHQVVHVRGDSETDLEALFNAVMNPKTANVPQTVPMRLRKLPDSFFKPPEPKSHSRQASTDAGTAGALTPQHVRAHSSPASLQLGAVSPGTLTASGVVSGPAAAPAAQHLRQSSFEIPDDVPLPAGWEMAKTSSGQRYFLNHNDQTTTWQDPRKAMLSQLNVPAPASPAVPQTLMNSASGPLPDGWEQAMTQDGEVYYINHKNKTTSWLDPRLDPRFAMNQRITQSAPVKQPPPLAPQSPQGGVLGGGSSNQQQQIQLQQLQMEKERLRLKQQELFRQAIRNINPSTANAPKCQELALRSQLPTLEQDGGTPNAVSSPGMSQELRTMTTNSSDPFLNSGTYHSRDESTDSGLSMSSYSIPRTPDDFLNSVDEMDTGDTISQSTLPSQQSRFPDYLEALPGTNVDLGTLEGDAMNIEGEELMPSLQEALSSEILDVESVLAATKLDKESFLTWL

Another experiment deals with FLAG-YAP (UniProt P46937). Put plainly: co-IP; HEK293T transfected with GFP-Kindlin-2 and FLAG-YAP, 48 h; lysates immunoprecipitated with anti-FLAG antibody and protein G-Sepharose.
In experiment [2] the target is endogenous YAP (HEK293T cells) (human (endogenous in HEK293T)) (UniProt P46937). Put plainly: co-IP; endogenous proteins in HEK293T; immunoprecipitation with anti-YAP or anti-LATS1 antibody; blot for Kindlin-2.
The target in experiment [3] is T2, endogenous LATS1 (HEK293T cells) (human (endogenous in HEK293T)) (UniProt O95835).
T2 sequence: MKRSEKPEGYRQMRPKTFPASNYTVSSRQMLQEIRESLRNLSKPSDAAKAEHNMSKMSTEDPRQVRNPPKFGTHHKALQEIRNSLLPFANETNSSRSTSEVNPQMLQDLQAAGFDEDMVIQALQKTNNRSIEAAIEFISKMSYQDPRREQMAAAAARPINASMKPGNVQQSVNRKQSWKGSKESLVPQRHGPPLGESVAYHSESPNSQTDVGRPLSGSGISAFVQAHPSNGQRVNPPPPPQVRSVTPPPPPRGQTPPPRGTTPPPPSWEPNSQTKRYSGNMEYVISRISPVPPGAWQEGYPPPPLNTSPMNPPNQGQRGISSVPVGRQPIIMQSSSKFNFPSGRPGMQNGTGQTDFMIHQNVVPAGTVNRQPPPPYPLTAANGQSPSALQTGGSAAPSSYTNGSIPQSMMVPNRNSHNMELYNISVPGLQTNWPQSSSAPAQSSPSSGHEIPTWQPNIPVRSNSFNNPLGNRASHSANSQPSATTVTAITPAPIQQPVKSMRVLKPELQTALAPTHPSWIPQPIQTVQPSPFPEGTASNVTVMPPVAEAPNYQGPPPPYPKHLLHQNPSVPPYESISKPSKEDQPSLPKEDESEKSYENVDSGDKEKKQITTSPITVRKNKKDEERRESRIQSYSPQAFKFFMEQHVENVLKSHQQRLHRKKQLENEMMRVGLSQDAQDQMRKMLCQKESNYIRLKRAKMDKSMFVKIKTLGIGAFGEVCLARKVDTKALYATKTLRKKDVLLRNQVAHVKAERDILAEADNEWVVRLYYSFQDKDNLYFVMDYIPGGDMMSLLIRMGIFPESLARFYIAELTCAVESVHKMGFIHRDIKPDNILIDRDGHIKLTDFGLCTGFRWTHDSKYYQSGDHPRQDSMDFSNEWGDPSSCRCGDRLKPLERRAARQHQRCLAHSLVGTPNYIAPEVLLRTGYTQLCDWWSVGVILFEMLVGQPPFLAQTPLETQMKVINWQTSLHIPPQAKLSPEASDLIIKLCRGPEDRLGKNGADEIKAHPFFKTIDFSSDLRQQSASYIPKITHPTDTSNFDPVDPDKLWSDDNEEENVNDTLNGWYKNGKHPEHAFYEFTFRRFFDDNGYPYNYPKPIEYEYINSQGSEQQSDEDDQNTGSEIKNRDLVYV
Described as above.

Experiment [4] deals with T3, endogenous Kindlin-2 (TM4 cells) (mouse (endogenous in TM4)) (UniProt Q8CIB5).
T3 sequence: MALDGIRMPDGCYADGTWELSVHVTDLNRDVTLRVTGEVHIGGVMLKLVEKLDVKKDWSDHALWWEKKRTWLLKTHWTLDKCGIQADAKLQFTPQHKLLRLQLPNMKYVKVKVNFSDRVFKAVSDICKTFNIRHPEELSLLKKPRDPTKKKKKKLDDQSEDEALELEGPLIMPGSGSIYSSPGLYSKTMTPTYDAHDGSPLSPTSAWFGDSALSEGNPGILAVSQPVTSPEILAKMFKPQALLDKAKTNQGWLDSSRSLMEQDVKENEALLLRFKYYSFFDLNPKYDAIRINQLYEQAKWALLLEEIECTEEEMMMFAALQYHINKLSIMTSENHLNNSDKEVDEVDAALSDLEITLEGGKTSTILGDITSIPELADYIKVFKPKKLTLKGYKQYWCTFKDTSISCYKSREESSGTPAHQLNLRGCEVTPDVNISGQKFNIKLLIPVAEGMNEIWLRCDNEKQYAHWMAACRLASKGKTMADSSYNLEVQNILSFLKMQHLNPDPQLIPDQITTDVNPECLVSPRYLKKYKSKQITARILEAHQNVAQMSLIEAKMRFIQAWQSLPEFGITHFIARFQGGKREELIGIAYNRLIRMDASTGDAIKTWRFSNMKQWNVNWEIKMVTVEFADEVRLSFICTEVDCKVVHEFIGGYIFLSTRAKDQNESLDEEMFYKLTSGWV
Put plainly: co-IP; endogenous proteins; untreated TM4 lysate (RIPA buffer) immunoprecipitated with IgG or anti-Kindlin-2 antibody; blots for YAP, LATS1, Kindlin-2.

The target of the next experiment is FLAG-Kindlin-2 (UniProt Q96AC1). Put plainly: co-IP; TM4 cells transfected with FLAG or FLAG-Kindlin-2, 48 h; lysates immunoprecipitated with anti-FLAG antibody and protein G-Sepharose; blots for endogenous YAP and LATS1.

Results are given in words; binding and its absence hold for the method and conditions named. Binding seen in cells or lysates may run through a third protein. Some results given as binding are weak or reduced against the parent protein; the word gives no strength. For some assays here: Where a sequence is shown, tags or fusion partners need not be part of it.

Consider four molecules from PMC8196014.

In the case of “GFP-Kindlin-2 (full-length) (from UniProt Q96AC1 1-680)”, the binding result (in experiment [1]; in the experiment with FLAG-YAP) was “binds” throughout.
“endogenous Kindlin-2 (HEK293T cells) (from UniProt Q96AC1 1-680)”: the binding entry in experiment [2] and in experiment [3] was “binds” in each case.
Take “endogenous YAP (TM4 cells) (from UniProt P46938 1-488)”: the binding result (in experiment [4]; with FLAG-Kindlin-2) was “binds” each time.

B1: endogenous LATS1 (TM4 cells) (protein, UniProt Q8BYR2 1-1129)
chain: MKRGEKPEGYRQMRPKTFPASNYPGSSRQMLQEIRESLRNLSKPSDASKAEHNLNKMSTEDPRQVRNPPKFGTHHKALQEIRNSLLPFANETSSSRSPSEVNPQMFQDLQAAGFDEDMVIQALQKTNNRSIEAAVEFISKMSYQDPRREQMSAAAARPINATMKPGNVQHSINRKQSWKGSKESLVPQRHGPSLGENVVYRSESPNSQADVGRPLSGSGIAAFAQAHPSNGQRVNPPPPPQVRSVTPPPPPRGQTPPPRGTTPPPPSWEPSSQTKRYSGNMEYVISRISPVPPGAWQEGYPPPPLTTSPMNPPSQAQRAISSVPVGRQPIIMQSTSKFNFTPGRPGVQNGGGQSDFIVHQNVPTGSVTRQPPPPYPLTPANGQSPSALQTGASAAPPSFANGNVPQSMMVPNRNSHNMELYNINVPGLQTAWPQSSSAPAQSSPSGGHEIPTWQPNIPVRSNSFNNPLGSRASHSANSQPSATTVTAITPAPIQQPVKSMRVLKPELQTALAPTHPSWMPQPVQTVQPTPFSEGTASSVPVIPPVAEAPSYQGPPPPYPKHLLHQNPSVPPYESVSKPCKDEQPSLPKEDDSEKSADSGDSGDKEKKQITTSPITVRKNKKDEERRESRIQSYSPQAFKFFMEQHVENVLKSHQQRLHRKKQLENEMMRVGLSQDAQDQMRKMLCQKESNYIRLKRAKMDKSMFVKIKTLGIGAFGEVCLARKVDTKALYATKTLRKKDVLLRNQVAHVKAERDILAEADNEWVVRLYYSFQDKDNLYFVMDYIPGGDMMSLLIRMGIFPENLARFYIAELTCAVESVHKMGFIHRDIKPDNILIDRDGHIKLTDFGLCTGFRWTHDSKYYQSGDHPRQDSMDFSNEWGDPSNCRCGDRLKPLERRAARQHQRCLAHSLVGTPNYIAPEVLLRTGYTQLCDWWSVGVILFEMLVGQPPFLAQTPLETQMKVINWQTSLHIPPQAKLSPEASDLIIKLCRGPEDRLGKNGADEIKAHPFFKTIDFSSDLRQQSASYIPKITHPTDTSNFDPVDPDKLWSDGSEEENISDTLNGWYKNGKHPEHAFYEFTFRRFFDDNGYPYNYPKPIEYEYIHSQGSEQQSDEDDQHTSSDGNNRDLVYV
For the molecule B1, the binding entry (in experiment [4]; with FLAG-Kindlin-2) was “binds” in each case.
